Source: PMC5046194
These are yes or no findings as the source states them, for the method shown. In cells and extracts the contact can be indirect. Some binding calls cover weakened binding; strength is not graded here.

Protein sequences, listed by entry. Tags and fused reporters are not part of them.
UniProt P04608: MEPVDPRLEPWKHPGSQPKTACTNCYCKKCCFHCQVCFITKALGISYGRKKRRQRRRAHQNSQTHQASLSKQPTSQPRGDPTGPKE
UniProt Q9H4L4: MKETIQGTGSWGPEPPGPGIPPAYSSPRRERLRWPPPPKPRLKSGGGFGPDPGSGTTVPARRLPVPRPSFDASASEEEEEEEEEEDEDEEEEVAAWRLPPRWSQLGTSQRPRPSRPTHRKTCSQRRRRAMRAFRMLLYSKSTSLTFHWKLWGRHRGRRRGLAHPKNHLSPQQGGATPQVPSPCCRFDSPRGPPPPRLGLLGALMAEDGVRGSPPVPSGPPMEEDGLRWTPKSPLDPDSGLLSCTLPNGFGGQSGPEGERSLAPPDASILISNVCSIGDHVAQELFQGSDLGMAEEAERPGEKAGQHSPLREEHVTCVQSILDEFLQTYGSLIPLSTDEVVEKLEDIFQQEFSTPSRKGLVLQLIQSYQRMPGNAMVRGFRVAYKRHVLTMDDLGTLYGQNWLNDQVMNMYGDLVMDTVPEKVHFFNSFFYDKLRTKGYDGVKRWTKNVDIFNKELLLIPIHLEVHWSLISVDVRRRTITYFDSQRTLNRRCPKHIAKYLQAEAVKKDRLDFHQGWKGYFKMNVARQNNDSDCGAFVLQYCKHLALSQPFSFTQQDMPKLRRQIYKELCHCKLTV

Biological target: HIV-1 Tat (HIV-1) (UniProt P04608)
Assay: co-IP; co-immunoprecipitation in the presence and absence of SUMO protease inhibitors

Substance: SENP3 (from UniProt Q9H4L4 1-574) (enzyme)
- binding: binds
